Source: the supplement of paper PMC10849652
This is one part of the list.

Chains of the proteins cited; added tags and fusions are not shown. Lines headed by an entry give the natural chain unless they say otherwise; changes in a name come on top.
UniProt Q96AB3: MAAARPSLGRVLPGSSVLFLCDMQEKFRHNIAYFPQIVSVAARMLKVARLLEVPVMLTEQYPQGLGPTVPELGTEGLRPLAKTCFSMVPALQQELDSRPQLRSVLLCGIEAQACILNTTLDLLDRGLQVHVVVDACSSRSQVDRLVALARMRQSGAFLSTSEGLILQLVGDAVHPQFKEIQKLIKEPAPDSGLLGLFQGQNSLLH
UniProt Q9NVH2, whole entry, looked up: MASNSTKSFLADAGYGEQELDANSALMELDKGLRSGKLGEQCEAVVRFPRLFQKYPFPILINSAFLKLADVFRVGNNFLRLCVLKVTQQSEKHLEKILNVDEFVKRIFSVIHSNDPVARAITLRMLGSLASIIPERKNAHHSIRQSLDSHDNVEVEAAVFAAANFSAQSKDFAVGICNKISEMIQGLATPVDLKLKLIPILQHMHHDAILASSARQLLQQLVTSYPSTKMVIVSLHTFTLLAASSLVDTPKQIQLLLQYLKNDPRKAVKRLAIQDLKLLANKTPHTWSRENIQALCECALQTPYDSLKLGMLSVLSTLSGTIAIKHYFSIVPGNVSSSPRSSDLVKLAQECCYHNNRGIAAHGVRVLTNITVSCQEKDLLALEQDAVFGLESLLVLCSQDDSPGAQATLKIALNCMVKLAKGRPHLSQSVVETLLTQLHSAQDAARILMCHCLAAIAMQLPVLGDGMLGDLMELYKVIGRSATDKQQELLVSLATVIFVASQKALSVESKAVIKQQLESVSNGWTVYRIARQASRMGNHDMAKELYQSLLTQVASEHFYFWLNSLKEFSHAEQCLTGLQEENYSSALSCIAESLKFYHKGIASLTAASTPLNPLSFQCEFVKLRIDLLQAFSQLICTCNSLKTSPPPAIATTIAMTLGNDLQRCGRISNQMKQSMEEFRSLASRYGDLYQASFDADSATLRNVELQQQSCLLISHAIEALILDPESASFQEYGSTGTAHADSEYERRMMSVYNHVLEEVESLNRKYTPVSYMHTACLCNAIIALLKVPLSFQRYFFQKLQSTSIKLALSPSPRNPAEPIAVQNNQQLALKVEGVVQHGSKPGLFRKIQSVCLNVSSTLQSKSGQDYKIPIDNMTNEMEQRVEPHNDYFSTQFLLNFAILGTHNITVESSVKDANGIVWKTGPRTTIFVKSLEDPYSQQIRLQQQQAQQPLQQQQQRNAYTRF
UniProt Q9UL03, whole entry, looked up: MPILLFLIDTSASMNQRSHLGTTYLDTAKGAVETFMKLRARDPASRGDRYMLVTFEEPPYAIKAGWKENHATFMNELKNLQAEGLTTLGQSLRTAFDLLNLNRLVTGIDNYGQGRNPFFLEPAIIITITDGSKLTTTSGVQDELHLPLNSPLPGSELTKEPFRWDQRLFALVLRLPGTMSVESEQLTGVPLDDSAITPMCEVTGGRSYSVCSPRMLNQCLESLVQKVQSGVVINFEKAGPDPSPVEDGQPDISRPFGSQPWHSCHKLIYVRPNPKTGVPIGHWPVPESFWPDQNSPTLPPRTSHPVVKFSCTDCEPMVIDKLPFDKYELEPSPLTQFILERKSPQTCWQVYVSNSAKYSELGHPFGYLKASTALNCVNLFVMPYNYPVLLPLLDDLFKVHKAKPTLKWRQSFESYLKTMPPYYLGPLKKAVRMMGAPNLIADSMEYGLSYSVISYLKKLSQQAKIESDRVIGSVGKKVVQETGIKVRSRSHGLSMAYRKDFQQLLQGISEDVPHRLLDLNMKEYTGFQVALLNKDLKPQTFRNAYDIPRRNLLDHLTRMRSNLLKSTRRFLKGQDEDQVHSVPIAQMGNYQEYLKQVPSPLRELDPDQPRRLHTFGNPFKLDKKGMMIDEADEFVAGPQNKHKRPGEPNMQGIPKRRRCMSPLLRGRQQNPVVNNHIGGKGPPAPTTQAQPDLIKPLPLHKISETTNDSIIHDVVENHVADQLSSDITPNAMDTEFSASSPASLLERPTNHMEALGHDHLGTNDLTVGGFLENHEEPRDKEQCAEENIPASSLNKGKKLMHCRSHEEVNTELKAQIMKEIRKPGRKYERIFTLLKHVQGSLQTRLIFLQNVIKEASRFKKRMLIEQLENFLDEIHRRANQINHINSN
UniProt Q8IU81: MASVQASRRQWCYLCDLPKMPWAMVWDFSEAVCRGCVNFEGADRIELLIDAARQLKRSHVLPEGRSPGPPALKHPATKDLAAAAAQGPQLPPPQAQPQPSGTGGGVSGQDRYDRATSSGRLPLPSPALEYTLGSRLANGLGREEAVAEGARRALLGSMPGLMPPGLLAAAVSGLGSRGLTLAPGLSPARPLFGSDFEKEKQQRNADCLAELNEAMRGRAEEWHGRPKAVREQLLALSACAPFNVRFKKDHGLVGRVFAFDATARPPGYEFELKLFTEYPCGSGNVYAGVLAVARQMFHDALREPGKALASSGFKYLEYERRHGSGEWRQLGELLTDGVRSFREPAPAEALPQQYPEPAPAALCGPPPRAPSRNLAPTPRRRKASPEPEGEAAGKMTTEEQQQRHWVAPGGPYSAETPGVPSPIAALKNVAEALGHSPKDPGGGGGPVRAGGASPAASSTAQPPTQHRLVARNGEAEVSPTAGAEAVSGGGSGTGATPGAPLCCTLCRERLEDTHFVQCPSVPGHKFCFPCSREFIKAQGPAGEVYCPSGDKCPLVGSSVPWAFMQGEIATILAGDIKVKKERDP
UniProt P0C870: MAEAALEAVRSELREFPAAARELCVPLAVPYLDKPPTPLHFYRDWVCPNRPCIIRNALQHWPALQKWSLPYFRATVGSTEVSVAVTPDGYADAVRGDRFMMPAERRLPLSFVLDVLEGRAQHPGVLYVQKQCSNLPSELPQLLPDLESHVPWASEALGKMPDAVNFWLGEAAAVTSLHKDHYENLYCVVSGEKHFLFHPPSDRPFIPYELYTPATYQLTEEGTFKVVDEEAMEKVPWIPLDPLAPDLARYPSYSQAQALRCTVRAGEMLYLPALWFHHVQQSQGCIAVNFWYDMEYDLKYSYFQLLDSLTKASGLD
UniProt Q9Y4C1: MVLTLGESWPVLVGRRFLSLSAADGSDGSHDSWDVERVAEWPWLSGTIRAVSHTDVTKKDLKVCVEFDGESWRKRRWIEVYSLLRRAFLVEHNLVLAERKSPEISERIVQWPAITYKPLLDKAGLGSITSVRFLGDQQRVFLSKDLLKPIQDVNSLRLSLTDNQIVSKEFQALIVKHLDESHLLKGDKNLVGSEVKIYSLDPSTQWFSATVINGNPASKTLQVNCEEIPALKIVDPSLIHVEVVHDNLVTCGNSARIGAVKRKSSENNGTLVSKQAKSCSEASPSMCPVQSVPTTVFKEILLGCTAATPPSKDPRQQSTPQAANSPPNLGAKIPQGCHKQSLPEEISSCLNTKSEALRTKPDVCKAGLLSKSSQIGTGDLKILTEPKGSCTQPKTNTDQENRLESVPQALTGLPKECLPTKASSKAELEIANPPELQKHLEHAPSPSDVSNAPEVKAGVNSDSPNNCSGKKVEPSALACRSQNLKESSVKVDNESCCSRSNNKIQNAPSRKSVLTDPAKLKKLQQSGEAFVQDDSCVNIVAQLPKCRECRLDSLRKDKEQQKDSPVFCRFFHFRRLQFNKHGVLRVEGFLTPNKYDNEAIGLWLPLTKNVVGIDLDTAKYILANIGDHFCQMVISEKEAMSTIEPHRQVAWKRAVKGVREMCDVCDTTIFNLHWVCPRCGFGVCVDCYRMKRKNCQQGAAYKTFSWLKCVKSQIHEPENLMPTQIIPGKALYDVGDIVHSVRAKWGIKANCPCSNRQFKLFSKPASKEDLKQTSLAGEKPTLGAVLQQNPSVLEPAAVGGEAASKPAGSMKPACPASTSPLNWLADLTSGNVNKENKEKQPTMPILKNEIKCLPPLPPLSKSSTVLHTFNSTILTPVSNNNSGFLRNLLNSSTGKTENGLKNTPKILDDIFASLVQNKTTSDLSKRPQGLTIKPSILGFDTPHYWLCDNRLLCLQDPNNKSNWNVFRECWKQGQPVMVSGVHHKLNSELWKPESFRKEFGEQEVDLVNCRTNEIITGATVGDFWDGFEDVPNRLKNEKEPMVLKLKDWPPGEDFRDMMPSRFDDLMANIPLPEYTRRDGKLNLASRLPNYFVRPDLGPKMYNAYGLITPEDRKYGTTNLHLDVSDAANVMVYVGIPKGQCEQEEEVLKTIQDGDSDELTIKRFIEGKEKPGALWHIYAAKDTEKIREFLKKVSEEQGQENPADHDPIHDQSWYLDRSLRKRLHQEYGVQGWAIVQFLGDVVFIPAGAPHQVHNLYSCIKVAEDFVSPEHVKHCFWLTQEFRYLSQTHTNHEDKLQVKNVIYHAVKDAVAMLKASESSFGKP
UniProt Q9Y2K7: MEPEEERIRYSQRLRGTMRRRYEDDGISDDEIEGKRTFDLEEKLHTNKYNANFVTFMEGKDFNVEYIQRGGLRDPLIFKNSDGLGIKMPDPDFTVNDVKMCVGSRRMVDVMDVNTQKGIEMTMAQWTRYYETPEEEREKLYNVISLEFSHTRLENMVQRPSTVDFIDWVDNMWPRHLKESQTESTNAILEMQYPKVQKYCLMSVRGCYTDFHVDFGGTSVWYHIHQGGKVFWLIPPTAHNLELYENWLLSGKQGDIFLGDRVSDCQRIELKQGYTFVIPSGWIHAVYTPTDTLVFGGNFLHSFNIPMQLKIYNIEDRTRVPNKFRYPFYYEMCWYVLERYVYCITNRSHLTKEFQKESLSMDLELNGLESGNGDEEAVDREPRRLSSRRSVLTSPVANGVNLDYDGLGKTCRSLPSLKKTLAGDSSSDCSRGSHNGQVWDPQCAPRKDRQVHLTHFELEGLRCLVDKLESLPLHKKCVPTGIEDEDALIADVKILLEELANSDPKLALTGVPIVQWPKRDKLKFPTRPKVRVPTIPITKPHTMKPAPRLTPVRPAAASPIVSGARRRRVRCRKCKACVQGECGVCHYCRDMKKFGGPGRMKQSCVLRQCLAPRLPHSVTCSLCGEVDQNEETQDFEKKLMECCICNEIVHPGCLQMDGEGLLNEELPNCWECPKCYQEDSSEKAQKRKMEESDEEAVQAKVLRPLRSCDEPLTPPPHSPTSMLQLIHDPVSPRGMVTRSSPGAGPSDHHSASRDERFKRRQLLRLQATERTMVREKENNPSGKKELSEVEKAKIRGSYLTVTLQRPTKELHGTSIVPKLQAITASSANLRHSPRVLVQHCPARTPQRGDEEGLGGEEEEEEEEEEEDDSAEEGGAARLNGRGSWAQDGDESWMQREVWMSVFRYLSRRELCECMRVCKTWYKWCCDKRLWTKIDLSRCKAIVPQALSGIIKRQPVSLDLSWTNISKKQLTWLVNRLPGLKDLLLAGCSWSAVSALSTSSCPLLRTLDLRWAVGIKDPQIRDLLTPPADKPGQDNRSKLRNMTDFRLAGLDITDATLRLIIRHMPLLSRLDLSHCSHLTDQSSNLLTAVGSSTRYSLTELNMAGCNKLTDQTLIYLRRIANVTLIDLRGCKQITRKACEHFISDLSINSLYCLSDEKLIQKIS
UniProt O60674: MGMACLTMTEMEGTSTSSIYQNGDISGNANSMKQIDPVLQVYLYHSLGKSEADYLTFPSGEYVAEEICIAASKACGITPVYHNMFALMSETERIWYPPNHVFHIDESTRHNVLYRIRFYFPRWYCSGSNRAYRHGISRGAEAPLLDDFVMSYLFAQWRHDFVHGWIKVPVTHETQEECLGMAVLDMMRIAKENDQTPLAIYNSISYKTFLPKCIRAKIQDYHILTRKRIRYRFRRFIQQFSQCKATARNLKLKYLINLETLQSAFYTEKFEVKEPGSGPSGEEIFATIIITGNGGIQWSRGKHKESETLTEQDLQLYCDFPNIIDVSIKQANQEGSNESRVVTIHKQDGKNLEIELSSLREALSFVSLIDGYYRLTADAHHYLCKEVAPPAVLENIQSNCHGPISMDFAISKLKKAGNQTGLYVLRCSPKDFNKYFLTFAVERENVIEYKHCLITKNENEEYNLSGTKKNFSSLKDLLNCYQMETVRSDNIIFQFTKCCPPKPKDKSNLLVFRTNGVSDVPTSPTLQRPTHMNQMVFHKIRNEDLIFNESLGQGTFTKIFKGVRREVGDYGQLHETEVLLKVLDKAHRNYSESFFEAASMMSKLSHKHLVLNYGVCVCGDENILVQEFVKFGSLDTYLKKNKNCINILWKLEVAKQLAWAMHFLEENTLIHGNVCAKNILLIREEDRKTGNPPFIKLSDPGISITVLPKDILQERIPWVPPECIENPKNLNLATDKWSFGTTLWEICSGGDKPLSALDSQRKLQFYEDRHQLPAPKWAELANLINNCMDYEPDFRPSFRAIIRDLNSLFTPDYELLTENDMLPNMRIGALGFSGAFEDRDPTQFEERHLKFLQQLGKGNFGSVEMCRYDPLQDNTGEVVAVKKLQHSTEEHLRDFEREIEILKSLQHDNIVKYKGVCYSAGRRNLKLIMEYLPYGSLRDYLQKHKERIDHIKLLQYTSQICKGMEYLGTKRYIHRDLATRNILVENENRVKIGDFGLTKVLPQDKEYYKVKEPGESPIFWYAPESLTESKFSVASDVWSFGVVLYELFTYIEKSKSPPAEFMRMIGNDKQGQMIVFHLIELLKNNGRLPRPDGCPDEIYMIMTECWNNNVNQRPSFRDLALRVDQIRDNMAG

The targets below were run with COc1cc2nc(-c3cc(F)ccc3O)nc(N[C@@H]3CNC[C@H]3C(C)(C)O)c2cc1OC (assay: log2 fold change, soluble protein after heating vs DMSO (PISA); higher = thermal stabilisation; K562 lysate, 10 uM; active = over 0.2 and 3.5 SD of the protein, either way, in both replicates (recomputed)).
How it was run: (§1)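 Log-two fold change in thermal stability relative to solvent controls is reported from duplicates. For each sample, crude K562 extract from dounce-homogenised pellets in PBS pH 7.4 with 1 mM MgCl2, at 1 mg/mL protein, was treated with 10 μM compound for 30 min. Aliquots heated for 3 min across 48°C-58°C were pooled, brought to 0.5% NP-40 at 4°C and cleared at 21,000xg for 90 min. The supernatant was quantified by TMTpro 16plex LC-MS/MS with channel sums equalised.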

log2 fold change, inactive:
KDELR1 (UniProt P24390) 0.115
IREB2 (UniProt P48200) -0.02
ITGA5 (UniProt P08648) -0.004
JMJD1C (UniProt Q15652) 0.054
ITPR1 (UniProt Q14643) 0.069
ITPRID2 (UniProt P28290) -0.074
KAT2A (UniProt Q92830) 0.067
KANSL1 (UniProt Q7Z3B3) -0.042
IRAK4 (UniProt Q9NWZ3) 0.111
IQSEC2 (UniProt Q5JU85) 0.067
KAT6B (UniProt Q8WYB5) -0.103
ISOC2 (UniProt Q96AB3) 0.043
ITGAE (UniProt P38570) 0.154
INTS6L (UniProt Q5JSJ4) -0.061
KCNN4 (UniProt O15554) 0.292
INTS7 (UniProt Q9NVH2) -0.018
INTS6 (UniProt Q9UL03) 0.007
ITGA2B (UniProt P08514) 0.054
KARS1 (UniProt Q15046) -0.011
IQGAP3 (UniProt Q86VI3) 0.102
IRF2BP1 (UniProt Q8IU81) 0.038
ITIH2 (UniProt P19823) 0.048
INTS5 (UniProt Q6P9B9) 0.013
IPP (UniProt Q9Y573) 0.06
KCNAB2 (UniProt Q13303) -0.021
IRS2 (UniProt Q9Y4H2) 0.004
KANK2 isoform 2 (UniProt Q63ZY3) 0.187
JMJD7 (UniProt P0C870) -0.047
ITPK1 (UniProt Q13572) -0.036
JAG2 (UniProt Q9Y219) -0.081
KAT5 isoform 3 (UniProt Q92993) 0.118
ITGB5 (UniProt P18084) 0.018

The targets below were run with COc1cc2ncnc(Nc3ccc(F)c(Cl)c3)c2cc1OCCCN1CCOCC1 [gefitinib] in the same assay as above.
How it was run: as §1

log2 fold change, inactive:
IREB2 (UniProt P48200) 0.02
ITGA5 (UniProt P08648) 0.019
JMJD1C (UniProt Q15652) 0.034
ITPRID2 (UniProt P28290) -0.095
KANSL1 (UniProt Q7Z3B3) 0.091
IRAK4 (UniProt Q9NWZ3) 0.045
KDM3A (UniProt Q9Y4C1) -0.046
IQSEC2 (UniProt Q5JU85) 0.062
KDM2A (UniProt Q9Y2K7) 0.009
ISOC2 (UniProt Q96AB3) -0.045
ITGAE (UniProt P38570) 0.058
KCNN4 (UniProt O15554) -0.245
INTS7 (UniProt Q9NVH2) 0.028
INTS6 (UniProt Q9UL03) 0.109
ITGA2B (UniProt P08514) 0.025
KARS1 (UniProt Q15046) -0.022
IQGAP3 (UniProt Q86VI3) -0.009
IRF2BP1 (UniProt Q8IU81) -0.003
ITIH2 (UniProt P19823) 0.06
INTS5 (UniProt Q6P9B9) 0.045
ITPKC (UniProt Q96DU7) 0.085
KCNAB2 (UniProt Q13303) 0.019
IRS2 (UniProt Q9Y4H2) 0.08
ITM2B (UniProt Q9Y287) 0.008
JMJD7 (UniProt P0C870) -0.016
ITPK1 (UniProt Q13572) 0.026
JAK2 (UniProt O60674) -0.237
KAT5 isoform 3 (UniProt Q92993) -0.02
ITGB5 (UniProt P18084) -0.011
